# Source: paper PMC9295074
# Amino acid sequences for entries named in this document (tags omitted).
# UniProt Q92754: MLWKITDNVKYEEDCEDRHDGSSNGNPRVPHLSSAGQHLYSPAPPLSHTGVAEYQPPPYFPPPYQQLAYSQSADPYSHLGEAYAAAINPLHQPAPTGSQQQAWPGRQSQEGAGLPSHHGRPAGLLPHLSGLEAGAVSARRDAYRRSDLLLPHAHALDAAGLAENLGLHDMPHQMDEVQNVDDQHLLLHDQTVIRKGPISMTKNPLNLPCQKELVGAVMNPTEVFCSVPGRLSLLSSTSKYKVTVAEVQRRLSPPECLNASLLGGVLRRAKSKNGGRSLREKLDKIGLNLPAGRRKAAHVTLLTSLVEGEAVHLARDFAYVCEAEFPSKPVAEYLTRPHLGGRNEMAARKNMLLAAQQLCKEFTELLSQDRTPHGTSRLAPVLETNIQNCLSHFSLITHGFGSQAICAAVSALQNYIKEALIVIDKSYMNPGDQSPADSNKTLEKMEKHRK
# UniProt O94972: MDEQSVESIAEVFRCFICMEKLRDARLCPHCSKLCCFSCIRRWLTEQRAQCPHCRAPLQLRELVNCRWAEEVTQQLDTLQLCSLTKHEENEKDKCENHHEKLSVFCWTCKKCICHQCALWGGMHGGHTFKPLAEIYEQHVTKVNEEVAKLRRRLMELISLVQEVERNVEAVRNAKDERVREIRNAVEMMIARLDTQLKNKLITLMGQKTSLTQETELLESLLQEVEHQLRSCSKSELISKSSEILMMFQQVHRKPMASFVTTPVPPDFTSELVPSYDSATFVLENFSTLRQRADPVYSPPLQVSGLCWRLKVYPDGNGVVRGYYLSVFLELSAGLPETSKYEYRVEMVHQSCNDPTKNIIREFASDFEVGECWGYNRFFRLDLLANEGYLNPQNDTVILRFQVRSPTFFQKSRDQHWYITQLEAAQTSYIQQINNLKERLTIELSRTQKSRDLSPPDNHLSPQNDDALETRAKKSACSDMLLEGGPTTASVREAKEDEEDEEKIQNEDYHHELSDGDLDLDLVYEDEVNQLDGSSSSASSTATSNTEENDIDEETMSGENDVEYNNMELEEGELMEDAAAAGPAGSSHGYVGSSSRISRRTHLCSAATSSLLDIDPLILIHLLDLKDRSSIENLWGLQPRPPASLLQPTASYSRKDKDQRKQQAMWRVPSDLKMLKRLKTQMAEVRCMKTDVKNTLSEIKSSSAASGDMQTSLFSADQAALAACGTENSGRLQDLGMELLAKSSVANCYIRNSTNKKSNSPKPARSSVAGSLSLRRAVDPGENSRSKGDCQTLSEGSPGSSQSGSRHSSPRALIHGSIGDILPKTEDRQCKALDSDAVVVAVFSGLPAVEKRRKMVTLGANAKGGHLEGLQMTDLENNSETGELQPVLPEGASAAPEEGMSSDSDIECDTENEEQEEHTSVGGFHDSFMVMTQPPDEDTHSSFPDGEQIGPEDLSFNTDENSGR
# Results are given in words; binding and its absence hold for the method and conditions named. In cells and extracts the contact can be indirect. A yes stands for co-enrichment or nearness to the bait. Other partners may have been found.
# Molecular target: Activator Protein 2 gamma (AP-2γ) (human (endogenous in MCF-7 and BT474)) (UniProt Q92754)
# Assay: affinity purification with mass spectrometry; RIME: MCF-7 cells cross-linked with 1% formaldehyde for 8 min at RT; endogenous AP-2γ immunoprecipitated with anti-AP-2γ (sc12762x) on sheep anti-mouse Dynabeads; label-free LC-MS/MS; IgG control; three replicates
substance,measurement,value
Tripartite motif-containing 37 (TRIM37) (from UniProt O94972 1-964),binding,binds
